Measurements taken from article PMC6454061.
These are yes or no findings as the source states them, for the method shown. In cells and extracts the contact can be indirect. Some results given as binding are weak or reduced against the parent protein; the word gives no strength.

T1: GlcNAcT-II (UniProt Q10469)
T1 sequence: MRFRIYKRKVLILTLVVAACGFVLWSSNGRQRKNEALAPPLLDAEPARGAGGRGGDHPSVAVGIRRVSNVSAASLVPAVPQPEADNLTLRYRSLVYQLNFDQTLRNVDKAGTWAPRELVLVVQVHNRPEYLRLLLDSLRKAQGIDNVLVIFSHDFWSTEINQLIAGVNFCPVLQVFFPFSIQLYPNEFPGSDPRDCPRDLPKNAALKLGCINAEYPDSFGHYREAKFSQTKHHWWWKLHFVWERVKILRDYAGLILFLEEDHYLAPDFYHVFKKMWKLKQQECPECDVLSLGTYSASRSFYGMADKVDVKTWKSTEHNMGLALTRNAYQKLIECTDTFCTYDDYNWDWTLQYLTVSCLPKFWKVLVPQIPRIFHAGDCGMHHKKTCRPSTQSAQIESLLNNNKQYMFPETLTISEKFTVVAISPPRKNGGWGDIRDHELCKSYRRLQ

T2: β1,4-galactosyltransferase B4GalT-I (UniProt P15291)
T2 sequence: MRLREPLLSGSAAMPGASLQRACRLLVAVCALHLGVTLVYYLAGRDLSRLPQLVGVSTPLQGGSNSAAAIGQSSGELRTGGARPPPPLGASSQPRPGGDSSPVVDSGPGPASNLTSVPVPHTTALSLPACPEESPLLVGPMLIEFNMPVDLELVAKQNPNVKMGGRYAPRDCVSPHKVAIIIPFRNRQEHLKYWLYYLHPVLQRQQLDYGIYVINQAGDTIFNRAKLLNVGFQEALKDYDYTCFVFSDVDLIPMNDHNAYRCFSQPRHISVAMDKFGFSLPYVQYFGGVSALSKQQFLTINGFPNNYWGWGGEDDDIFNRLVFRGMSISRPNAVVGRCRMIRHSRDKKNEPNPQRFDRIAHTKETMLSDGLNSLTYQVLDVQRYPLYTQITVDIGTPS


Key:
Assay in all cases: FRET or BRET; mVenus- and mCherry-tagged enzyme constructs co-transfected in COS-7 cells, fixed with 4% PFA, FRET quantified by high content imaging (Operetta); normoxic cells as the reference (100%); cells also compared after moderate hypoxia (5% O2, 4-24 h) or 3-10 mM DTT; mutants given as percent of wild type
GlcNAcT-II = biological target: T1, GlcNAcT-II
[1] = biological target: α-2,6-sialyltransferase ST6Gal-I, wild type (human) (UniProt P15907)
[2] = biological target: T2, β1,4-galactosyltransferase B4GalT-I
[3] = biological target: ST6Gal-I cysteine mutant C406A (human) (UniProt P15907)
[4] = biological target: ST6Gal-I cysteine mutant C353A (human) (UniProt P15907)
[5] = biological target: ST6Gal-I double cysteine mutant (C353A-C406A) (human) (UniProt P15907)

| binding [2] | Binder | further results |
| --- | --- | --- |
|  | GlcNAcT-I (enzyme, UniProt P26572 1-445) MLKKQSAGLVLWGAILFVAWNALLLLFFWTRPAPGRPPSVSALDGDPASLTREVIRLAQDAEVELERQRGLLQQIGDALSSQRGRVPTAAPPAQPRVPVTPAPAVIPILVIACDRSTVRRCLDKLLHYRPSAELFPIIVSQDCGHEETAQAIASYGSAVTHIRQPDLSSIAVPPDHRKFQGYYKIARHYRWALGQVFRQFRFPAAVVVEDDLEVAPDFFEYFRATYPLLKADPSLWCVSAWNDNGKEQMVDASRPELLYRTDFFPGLGWLLLAELWAELEPKWPKAFWDDWMRRPEQRQGRACIRPEISRTMTFGRKGVSHGQFFDQHLKFIKLNQQFVHFTQLDLSYLQREAYDRDFLARVYGAPQLQVEKVRTNDRKELGEVRVQYTGRDSFKAFAKALGVMDDLKSGVPRAGYRGIVTFQFRGRRVHLAPPLTWEGYDPSWN | binding (GlcNAcT-II): binds |
| binds | α-2,6-sialyltransferase ST6Gal-I, wild type (enzyme, UniProt P15907 89-406) PEASFQVWNKDSSSKNLIPRLQKIWKNYLSMNKYKVSYKGPGPGIKFSAEALRCHLRDHVNVSMVEVTDFPFNTSEWEGYLPKESIRTKAGPWGRCAVVSSAGSLKSSQLGREIDDHDAVLRFNGAPTANFQQDVGTKTTIRLMNSQLVTTEKRFLKDSLYNEGILIVWDPSVYHSDIPKWYQNPDYNFFNNYKTYRKLHPNQPFYILKPQMPWELWDILQEISPEEIQPNPPSSGMLGIIIMMTLCDQVDIYEFLPSKRKTDVCYYYQKFFDSACTMGAYHPLLYEKNLVKHLNQGTDEDIYLLGKATLPGFRTIHC | binding [1]: binds |
| binds | ST6Gal-I cysteine mutant C406A (enzyme, UniProt P15907 89-406) PEASFQVWNKDSSSKNLIPRLQKIWKNYLSMNKYKVSYKGPGPGIKFSAEALRCHLRDHVNVSMVEVTDFPFNTSEWEGYLPKESIRTKAGPWGRCAVVSSAGSLKSSQLGREIDDHDAVLRFNGAPTANFQQDVGTKTTIRLMNSQLVTTEKRFLKDSLYNEGILIVWDPSVYHSDIPKWYQNPDYNFFNNYKTYRKLHPNQPFYILKPQMPWELWDILQEISPEEIQPNPPSSGMLGIIIMMTLCDQVDIYEFLPSKRKTDVCYYYQKFFDSACTMGAYHPLLYEKNLVKHLNQGTDEDIYLLGKATLPGFRTIHA | binding [3]: binds |
| binds | ST6Gal-I cysteine mutant C353A (enzyme, UniProt P15907 89-406) PEASFQVWNKDSSSKNLIPRLQKIWKNYLSMNKYKVSYKGPGPGIKFSAEALRCHLRDHVNVSMVEVTDFPFNTSEWEGYLPKESIRTKAGPWGRCAVVSSAGSLKSSQLGREIDDHDAVLRFNGAPTANFQQDVGTKTTIRLMNSQLVTTEKRFLKDSLYNEGILIVWDPSVYHSDIPKWYQNPDYNFFNNYKTYRKLHPNQPFYILKPQMPWELWDILQEISPEEIQPNPPSSGMLGIIIMMTLCDQVDIYEFLPSKRKTDVAYYYQKFFDSACTMGAYHPLLYEKNLVKHLNQGTDEDIYLLGKATLPGFRTIHC | binding [4]: binds |
|  | ST6Gal-I double cysteine mutant (C353A-C406A) (enzyme, UniProt P15907 89-406) PEASFQVWNKDSSSKNLIPRLQKIWKNYLSMNKYKVSYKGPGPGIKFSAEALRCHLRDHVNVSMVEVTDFPFNTSEWEGYLPKESIRTKAGPWGRCAVVSSAGSLKSSQLGREIDDHDAVLRFNGAPTANFQQDVGTKTTIRLMNSQLVTTEKRFLKDSLYNEGILIVWDPSVYHSDIPKWYQNPDYNFFNNYKTYRKLHPNQPFYILKPQMPWELWDILQEISPEEIQPNPPSSGMLGIIIMMTLCDQVDIYEFLPSKRKTDVAYYYQKFFDSACTMGAYHPLLYEKNLVKHLNQGTDEDIYLLGKATLPGFRTIHA | binding [5]: binds |
| binds | ST3Gal-III sialyltransferase (enzyme, UniProt Q11203 1-375) MGLLVFVRNLLLALCLFLVLGFLYYSAWKLHLLQWEEDSNSVVLSFDSAGQTLGSEYDRLGFLLNLDSKLPAELATKYANFSEGACKPGYASALMTAIFPRFSKPAPMFLDDSFRKWARIREFVPPFGIKGQDNLIKAILSVTKEYRLTPALDSLRCRRCIIVGNGGVLANKSLGSRIDDYDIVVRLNSAPVKGFEKDVGSKTTLRITYPEGAMQRPEQYERDSLFVLAGFKWQDFKWLKYIVYKERVSASDGFWKSVATRVPKEPPEIRILNPYFIQEAAFTLIGLPFNNGLMGRGNIPTLGSVAVTMALHGCDEVAVAGFGYDMSTPNAPLHYYETVRMAAIKESWTHNIQREKEFLRKLVKARVITDLSSGI |  |
| binds | β1,4-galactosyltransferase B4GalT-I (enzyme, UniProt P15291 1-398) MRLREPLLSGSAAMPGASLQRACRLLVAVCALHLGVTLVYYLAGRDLSRLPQLVGVSTPLQGGSNSAAAIGQSSGELRTGGARPPPPLGASSQPRPGGDSSPVVDSGPGPASNLTSVPVPHTTALSLPACPEESPLLVGPMLIEFNMPVDLELVAKQNPNVKMGGRYAPRDCVSPHKVAIIIPFRNRQEHLKYWLYYLHPVLQRQQLDYGIYVINQAGDTIFNRAKLLNVGFQEALKDYDYTCFVFSDVDLIPMNDHNAYRCFSQPRHISVAMDKFGFSLPYVQYFGGVSALSKQQFLTINGFPNNYWGWGGEDDDIFNRLVFRGMSISRPNAVVGRCRMIRHSRDKKNEPNPQRFDRIAHTKETMLSDGLNSLTYQVLDVQRYPLYTQITVDIGTPS |  |
